Results as given in PMC9718841.
Results are given in words; binding and its absence hold for the method and conditions named. In cells and extracts the contact can be indirect. Some entries that bind do so weakly or less than the wild type.

Sequences of proteins named here, by UniProt entry; tags and fusion partners are left off.
UniProt Q61056: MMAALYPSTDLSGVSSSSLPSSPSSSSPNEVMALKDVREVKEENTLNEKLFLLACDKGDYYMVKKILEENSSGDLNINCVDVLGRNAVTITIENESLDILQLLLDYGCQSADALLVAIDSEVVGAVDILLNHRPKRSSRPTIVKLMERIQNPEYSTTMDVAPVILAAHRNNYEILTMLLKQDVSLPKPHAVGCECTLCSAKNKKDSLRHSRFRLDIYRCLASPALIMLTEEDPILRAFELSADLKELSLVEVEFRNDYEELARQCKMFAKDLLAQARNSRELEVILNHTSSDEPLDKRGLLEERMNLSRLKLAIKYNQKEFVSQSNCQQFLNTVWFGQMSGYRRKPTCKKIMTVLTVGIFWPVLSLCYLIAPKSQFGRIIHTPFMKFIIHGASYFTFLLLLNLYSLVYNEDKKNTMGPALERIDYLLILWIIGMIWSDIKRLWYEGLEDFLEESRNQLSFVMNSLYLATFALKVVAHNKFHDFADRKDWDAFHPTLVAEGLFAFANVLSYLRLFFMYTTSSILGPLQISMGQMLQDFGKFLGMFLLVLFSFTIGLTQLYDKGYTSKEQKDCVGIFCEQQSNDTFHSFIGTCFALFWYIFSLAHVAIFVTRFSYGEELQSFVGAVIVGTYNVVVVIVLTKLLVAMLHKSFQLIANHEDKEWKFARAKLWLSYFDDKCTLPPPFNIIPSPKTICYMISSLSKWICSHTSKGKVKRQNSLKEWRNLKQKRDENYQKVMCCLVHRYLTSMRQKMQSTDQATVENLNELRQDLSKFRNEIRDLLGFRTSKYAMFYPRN
UniProt P11881: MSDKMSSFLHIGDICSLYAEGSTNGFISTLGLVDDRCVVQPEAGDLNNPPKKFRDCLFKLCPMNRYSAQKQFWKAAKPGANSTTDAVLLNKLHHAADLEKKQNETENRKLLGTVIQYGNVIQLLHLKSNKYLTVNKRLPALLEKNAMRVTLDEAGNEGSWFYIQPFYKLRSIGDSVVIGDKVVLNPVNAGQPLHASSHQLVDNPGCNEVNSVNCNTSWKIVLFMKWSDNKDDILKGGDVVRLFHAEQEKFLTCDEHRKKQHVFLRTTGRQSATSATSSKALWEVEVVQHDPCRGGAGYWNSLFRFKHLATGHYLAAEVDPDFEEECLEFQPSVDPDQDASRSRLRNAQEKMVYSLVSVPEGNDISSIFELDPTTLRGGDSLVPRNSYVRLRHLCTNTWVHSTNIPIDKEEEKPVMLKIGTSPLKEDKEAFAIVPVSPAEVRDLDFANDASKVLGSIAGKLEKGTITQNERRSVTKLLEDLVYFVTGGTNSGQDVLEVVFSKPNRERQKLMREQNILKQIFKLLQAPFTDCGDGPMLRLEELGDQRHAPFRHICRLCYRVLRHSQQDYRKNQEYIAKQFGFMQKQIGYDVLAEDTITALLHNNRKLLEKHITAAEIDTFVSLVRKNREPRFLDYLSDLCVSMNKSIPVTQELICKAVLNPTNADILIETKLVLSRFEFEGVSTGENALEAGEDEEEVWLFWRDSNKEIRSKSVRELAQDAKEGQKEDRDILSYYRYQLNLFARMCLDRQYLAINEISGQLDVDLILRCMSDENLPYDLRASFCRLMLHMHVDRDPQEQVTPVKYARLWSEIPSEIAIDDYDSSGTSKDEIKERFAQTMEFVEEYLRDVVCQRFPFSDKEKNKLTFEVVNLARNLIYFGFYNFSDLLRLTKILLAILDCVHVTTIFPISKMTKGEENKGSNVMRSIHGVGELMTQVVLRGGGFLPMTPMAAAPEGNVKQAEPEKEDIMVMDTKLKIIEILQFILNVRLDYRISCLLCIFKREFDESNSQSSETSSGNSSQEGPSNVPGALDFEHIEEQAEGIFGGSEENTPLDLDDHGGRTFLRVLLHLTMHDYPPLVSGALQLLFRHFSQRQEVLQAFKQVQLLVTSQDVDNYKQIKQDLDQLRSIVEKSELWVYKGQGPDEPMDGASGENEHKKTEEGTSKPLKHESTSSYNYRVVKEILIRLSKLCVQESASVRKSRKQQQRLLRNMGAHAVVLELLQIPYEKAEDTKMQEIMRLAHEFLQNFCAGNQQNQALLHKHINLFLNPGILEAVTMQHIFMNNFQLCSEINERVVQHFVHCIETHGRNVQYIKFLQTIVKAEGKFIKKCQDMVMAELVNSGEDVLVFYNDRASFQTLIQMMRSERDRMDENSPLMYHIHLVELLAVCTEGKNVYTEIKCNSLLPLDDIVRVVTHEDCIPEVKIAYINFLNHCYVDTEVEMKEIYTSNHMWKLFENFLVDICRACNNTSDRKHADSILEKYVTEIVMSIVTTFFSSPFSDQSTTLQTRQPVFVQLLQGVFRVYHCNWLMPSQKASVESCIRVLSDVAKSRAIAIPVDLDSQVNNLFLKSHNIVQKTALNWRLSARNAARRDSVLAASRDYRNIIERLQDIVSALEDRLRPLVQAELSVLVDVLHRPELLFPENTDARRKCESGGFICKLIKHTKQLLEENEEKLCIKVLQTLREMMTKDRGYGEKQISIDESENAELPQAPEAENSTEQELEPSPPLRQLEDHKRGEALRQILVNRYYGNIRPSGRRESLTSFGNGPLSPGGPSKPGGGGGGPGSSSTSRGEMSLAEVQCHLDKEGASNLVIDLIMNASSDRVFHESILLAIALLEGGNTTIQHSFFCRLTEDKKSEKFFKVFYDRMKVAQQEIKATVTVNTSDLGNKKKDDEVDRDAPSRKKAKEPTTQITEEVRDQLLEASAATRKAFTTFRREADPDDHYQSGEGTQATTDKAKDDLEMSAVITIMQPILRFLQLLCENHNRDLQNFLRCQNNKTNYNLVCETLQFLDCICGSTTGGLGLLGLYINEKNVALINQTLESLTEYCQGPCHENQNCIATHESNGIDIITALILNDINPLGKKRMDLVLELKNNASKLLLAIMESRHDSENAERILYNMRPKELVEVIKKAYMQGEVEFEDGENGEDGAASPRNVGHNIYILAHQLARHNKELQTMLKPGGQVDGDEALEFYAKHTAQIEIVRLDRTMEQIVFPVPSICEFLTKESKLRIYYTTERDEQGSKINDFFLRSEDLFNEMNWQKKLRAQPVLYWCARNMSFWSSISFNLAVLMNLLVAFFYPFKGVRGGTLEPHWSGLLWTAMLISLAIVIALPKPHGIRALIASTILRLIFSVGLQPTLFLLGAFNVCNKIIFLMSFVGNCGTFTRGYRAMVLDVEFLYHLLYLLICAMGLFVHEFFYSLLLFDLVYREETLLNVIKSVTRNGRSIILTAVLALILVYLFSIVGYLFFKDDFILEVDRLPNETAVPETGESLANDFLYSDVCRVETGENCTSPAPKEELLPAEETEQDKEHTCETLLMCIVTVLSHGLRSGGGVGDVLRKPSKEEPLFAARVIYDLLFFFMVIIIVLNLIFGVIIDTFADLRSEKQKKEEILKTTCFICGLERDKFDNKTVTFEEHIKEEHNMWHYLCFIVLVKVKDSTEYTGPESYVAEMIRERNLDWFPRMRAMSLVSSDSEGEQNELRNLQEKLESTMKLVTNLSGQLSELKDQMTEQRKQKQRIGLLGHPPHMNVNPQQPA

Legend:
[1] = biological target: transient receptor potential canonical channel 1 (endogenous, mouse) (mouse (endogenous in heart and cardiomyocytes)) (UniProt Q61056); test: co-IP; endogenous proteins in lysates of LPS-stimulated neonatal mouse cardiomyocytes; pretreatments: CALP1 (20 μM), SKF96365 (concentration series)
[2] = biological target: T1, transient receptor potential canonical channel 6 (endogenous, mouse) (mouse (endogenous in heart and cardiomyocytes)) (UniProt Q61143); test: co-IP; endogenous proteins in mouse heart (ventricle) lysates, 1000 μg total protein, antibody on Protein A/G sepharose, 4 °C overnight, western blot; WT, Trpc1−/− and Trpc6−/− mice, 4 h after LPS or vehicle
T1 sequence: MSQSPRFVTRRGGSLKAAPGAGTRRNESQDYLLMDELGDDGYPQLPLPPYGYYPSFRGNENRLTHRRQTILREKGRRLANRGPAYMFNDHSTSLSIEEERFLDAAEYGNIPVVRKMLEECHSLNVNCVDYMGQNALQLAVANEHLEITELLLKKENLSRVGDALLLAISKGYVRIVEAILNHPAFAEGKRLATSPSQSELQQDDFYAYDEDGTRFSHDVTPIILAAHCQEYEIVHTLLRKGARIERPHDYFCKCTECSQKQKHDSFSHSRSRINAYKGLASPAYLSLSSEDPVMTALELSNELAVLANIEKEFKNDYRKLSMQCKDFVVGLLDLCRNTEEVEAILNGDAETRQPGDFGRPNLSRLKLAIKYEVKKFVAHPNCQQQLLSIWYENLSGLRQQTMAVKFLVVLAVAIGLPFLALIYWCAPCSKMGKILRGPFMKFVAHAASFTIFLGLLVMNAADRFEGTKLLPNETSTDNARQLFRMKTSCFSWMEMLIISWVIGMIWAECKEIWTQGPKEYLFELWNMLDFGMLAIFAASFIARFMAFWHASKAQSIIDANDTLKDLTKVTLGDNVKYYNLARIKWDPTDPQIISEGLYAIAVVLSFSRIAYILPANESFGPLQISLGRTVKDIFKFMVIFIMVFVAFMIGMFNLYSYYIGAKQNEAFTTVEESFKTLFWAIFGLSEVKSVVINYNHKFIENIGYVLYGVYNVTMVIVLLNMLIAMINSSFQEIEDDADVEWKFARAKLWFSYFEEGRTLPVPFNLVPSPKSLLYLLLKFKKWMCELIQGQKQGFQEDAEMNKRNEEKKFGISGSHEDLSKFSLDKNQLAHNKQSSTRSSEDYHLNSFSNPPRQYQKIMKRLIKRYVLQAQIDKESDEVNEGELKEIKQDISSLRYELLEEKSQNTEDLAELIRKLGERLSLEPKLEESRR

[3] = biological target: transient receptor potential canonical channel 1 (endogenous, mouse) (mouse (endogenous in heart and cardiomyocytes)) (UniProt Q61056); test: as above
[4] = biological target: T1, transient receptor potential canonical channel 6 (endogenous, mouse) (mouse (endogenous in heart and cardiomyocytes)); test: proximity ligation; Duolink PLA in fixed neonatal mouse cardiomyocytes, with or without LPS; WT cells for TRPC1/TRPC6 with IP3R1, Trpc1 and Trpc6 knockout cells for CaM with TLR4 or IP3R1
[5] = biological target: transient receptor potential canonical channel 1 (endogenous, mouse) (mouse (endogenous in heart and cardiomyocytes)) (UniProt Q61056); test: as above
[6] = biological target: T1, transient receptor potential canonical channel 6 (endogenous, mouse) (mouse (endogenous in heart and cardiomyocytes)); test: co-IP; endogenous TRPC1 and TRPC6 in cardiomyocytes, with or without LPS (Supplementary Fig. 10a)

binding [1]	binding [2]	binding [3]	binding [4]	binding [5]	binding [6]	Substance
binds	binds	binds	binds	binds	–	IP3 receptor subtype 1 (endogenous, mouse) (from UniProt P11881 1-2749)
–	–	–	–	–	no binding	transient receptor potential canonical channel 1 (endogenous, mouse) (from UniProt Q61056 1-793)
